# Test results reported in publication PMC6203768.
# The chains behind the UniProt entries cited, without tags or fusion partners.
# UniProt P53350: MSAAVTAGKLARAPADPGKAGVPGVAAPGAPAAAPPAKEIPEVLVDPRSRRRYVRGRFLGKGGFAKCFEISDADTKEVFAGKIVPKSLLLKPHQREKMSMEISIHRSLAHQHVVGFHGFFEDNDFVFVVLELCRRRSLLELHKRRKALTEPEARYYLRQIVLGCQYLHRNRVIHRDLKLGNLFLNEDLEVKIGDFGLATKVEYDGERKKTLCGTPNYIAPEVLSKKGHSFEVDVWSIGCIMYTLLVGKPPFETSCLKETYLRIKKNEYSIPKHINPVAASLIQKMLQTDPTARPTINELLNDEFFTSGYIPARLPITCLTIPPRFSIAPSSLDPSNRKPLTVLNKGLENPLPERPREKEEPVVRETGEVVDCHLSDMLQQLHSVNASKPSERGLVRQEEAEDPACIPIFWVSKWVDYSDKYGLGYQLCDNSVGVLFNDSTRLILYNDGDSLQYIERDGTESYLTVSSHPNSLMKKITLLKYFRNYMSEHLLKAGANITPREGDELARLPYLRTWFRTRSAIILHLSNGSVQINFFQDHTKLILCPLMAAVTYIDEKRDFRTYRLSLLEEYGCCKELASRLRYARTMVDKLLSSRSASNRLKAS
# UniProt Q96GD4: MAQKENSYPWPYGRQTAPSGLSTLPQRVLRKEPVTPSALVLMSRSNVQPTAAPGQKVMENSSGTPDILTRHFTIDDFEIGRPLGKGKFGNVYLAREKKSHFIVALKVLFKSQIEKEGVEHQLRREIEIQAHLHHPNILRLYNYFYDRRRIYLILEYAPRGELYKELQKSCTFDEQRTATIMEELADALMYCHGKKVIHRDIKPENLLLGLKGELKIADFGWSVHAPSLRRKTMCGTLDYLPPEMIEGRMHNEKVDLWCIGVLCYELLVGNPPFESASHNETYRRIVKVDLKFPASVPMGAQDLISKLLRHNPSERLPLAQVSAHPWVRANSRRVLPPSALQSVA
# No constants are given. Whether binding was seen depends on the method and setting. In cells and extracts the contact can be indirect. Some results given as binding are weak or reduced against the parent protein; the word gives no strength. For some of these results: Where a sequence is shown, tags or fusion partners need not be part of it.
# How the values were obtained:
# [1] = target: T1, Flag-tagged TAP-BEX4 (full-length human brain-expressed X-linked 4 in pTAP) (human) (UniProt Q9NWD9); assay: pull-down; tandem affinity purification (TAP) from extracts of asynchronously growing 293T cells transfected with TAP or Flag-tagged TAP-BEX4; bound proteins blotted with anti-Flag, anti-PLK1 and anti-actin
# T1 sequence: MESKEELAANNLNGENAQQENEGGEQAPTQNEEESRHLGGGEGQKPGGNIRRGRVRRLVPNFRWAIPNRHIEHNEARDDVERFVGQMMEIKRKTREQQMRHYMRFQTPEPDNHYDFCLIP
# [2] = target: T2, brain-expressed X-linked 4 (BEX4), endogenous (human (endogenous in HeLa)) (UniProt Q9NWD9); assay: co-IP; HeLa cell extracts with or without nocodazole (200 ng/ml), immunoprecipitated with normal IgG or anti-BEX4 antibody; blotted with anti-BEX4, anti-PLK1, anti-CDK1 and anti-actin
# T2 sequence: T1 sequence
# [3] = target: T3, GST-BEX4 (full-length human BEX4 in pGEX-KG) (human) (UniProt Q9NWD9); assay: pull-down; beads bound to GST alone or GST-BEX4, incubated with HeLa cell extracts (asynchronous; nocodazole 200 ng/ml for 16 h; released into fresh media for 2 h); bound proteins analysed by SDS-PAGE and immunoblot; only the target purified
# T3 sequence: T1 sequence
Substance,binding [1],binding [2],binding [3]
"Polo-like kinase 1 (PLK1), endogenous (from UniProt P53350 1-603) (enzyme)",binds,binds,binds
"aurora B kinase, endogenous (from UniProt Q96GD4 1-344) (enzyme)",–,–,no binding
